Taken from: PubChem BioAssay AID1259308 (NCATS, 2017)
Shown is an unselected part of about 59,000 deposited reagents. About 1,510 of them (2.6%) count as active. 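Calls use total luciferase alone and ignore viability, so some active siRNAs may act by altering cell number.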 Reagents against one gene are numbered here.

Screen: 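Genes whose loss raises luciferase production in HEK293 cells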 (primary screen)
System: human HEK293 embryonic kidney cells stably expressing firefly luciferase (HEK-CMV-Luc2-Hygro)
Reagents: single siRNA against human genes, 0.8 pmol siRNA per well
Duration: 72 h
Measured: 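Luciferase light (ONE-Glo) measured on one replicate plate set and viability (CellTiter-Glo) on the other, scaled to a negative control siRNA, with robust z-scores and luciferase per cell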
Scale: total luciferase, z-score and total luciferase, % of control: higher = more reporter protein produced; luciferase per cell, z-score: higher = more reporter output per viable cell; viable cells, % of control: higher = more viable cells
Call rule: 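An siRNA counts as active if its total luciferase robust z-score exceeds 3; genes with two or more such siRNAs out of three were retested with fresh siRNAs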
Meaning of the calls: active = raised luciferase; inactive = no rise

no.	gene	siRNA no.	total luciferase, z-score	total luciferase, % of control	luciferase per cell, z-score	viable cells, % of control	Outcome
1	HNRNPAB	1	0.0149	82.2	-0.718	111	inactive
2	HNRNPAB	2	4.32	168	2.84	88.9	active
3	HNRNPAB	3	1.42	110	2.43	64.9	inactive
4	HSCB	1	-1.62	49.7	-1.11	74.4	inactive
5	HSCB	2	-1.59	50.4	-0.709	67.8	inactive
6	HSCB	3	-0.236	77.2	-0.627	102	inactive
7	UQCRHL	1	1.07	103	1.82	71.4	inactive
8	UQCRHL	2	-0.219	77.5	-0.743	105	inactive
9	UQCRHL	3	0.356	89	0.452	88.3	inactive
10	ACBD4	1	-0.769	66.6	-0.163	77.7	inactive
11	ACBD4	2	-1.18	58.3	-1.11	87.4	inactive
12	ACBD4	3	-1.45	53	-0.677	70.8	inactive
13	RNF214	1	1.3	108	0.978	93.1	inactive
14	RNF214	2	-0.167	78.6	-0.388	97.2	inactive
15	RNF214	3	-1.33	55.4	-1.65	95.5	inactive
16	EPS8L2	1	-0.597	70	-0.506	89.4	inactive
17	EPS8L2	2	1.25	107	0.869	94.8	inactive
18	EPS8L2	3	-1.71	47.9	-1.99	90.4	inactive
19	CACNA2D1	1	-0.366	74.6	-0.655	99.1	inactive
20	CACNA2D1	2	-0.609	69.8	-0.911	99.1	inactive
21	CACNA2D1	3	-0.534	71.3	-1.3	112	inactive
22	GRM6	1	1.11	104	0.429	104	inactive
23	GRM6	2	1.66	115	1.3	91.1	inactive
24	GRM6	3	0.784	97.5	0.186	104	inactive
25	TMEM255B	1	-0.455	72.8	-0.469	92.1	inactive
26	TMEM255B	2	0.463	91.1	0.879	80.8	inactive
27	TMEM255B	3	-0.27	76.5	-0.949	110	inactive
28	ACAP3	1	-1.37	54.6	-0.542	70.4	inactive
29	ACAP3	2	-0.35	74.9	-0.527	96.2	inactive
30	ACAP3	3	-0.495	72	-0.555	93.2	inactive
31	IDUA	1	-2.95	23.2	-2.12	45.2	inactive
32	IDUA	2	-0.202	77.9	0.322	79.9	inactive
33	IDUA	3	1.12	104	0.603	99.4	inactive
34	LOC100128762	1	0.046	82.8	-0.675	111	inactive
35	LOC100128762	2	-0.385	74.2	-0.571	96.4	inactive
36	LOC100128762	3	2.44	130	2.26	80.3	inactive
37	EPHB1	1	-1.21	57.8	-0.6	75.6	inactive
38	EPHB1	2	0.559	93	0.0917	101	inactive
39	EPHB1	3	1.55	113	0.748	103	inactive

4 entries from above, ordered by “total luciferase, z-score”, ascending.
gene	siRNA no.	total luciferase, z-score	total luciferase, % of control	luciferase per cell, z-score	viable cells, % of control	Outcome
HSCB	1	-1.62	49.7	-1.11	74.4	inactive
HSCB	2	-1.59	50.4	-0.709	67.8	inactive
HSCB	3	-0.236	77.2	-0.627	102	inactive
UQCRHL	1	1.07	103	1.82	71.4	inactive
